No constants are given. Whether binding was seen depends on the method and setting. Binding seen in cells or lysates may run through a third protein. Some binding calls cover weakened binding; strength is not graded here. Tags and fused reporters may be left off the sequences shown.
T1: cYFP-tagged SOQ1 (full-length SOQ1 in pUC-SPYCE) (Arabidopsis thaliana) (UniProt Q8VZ10)
T1 sequence: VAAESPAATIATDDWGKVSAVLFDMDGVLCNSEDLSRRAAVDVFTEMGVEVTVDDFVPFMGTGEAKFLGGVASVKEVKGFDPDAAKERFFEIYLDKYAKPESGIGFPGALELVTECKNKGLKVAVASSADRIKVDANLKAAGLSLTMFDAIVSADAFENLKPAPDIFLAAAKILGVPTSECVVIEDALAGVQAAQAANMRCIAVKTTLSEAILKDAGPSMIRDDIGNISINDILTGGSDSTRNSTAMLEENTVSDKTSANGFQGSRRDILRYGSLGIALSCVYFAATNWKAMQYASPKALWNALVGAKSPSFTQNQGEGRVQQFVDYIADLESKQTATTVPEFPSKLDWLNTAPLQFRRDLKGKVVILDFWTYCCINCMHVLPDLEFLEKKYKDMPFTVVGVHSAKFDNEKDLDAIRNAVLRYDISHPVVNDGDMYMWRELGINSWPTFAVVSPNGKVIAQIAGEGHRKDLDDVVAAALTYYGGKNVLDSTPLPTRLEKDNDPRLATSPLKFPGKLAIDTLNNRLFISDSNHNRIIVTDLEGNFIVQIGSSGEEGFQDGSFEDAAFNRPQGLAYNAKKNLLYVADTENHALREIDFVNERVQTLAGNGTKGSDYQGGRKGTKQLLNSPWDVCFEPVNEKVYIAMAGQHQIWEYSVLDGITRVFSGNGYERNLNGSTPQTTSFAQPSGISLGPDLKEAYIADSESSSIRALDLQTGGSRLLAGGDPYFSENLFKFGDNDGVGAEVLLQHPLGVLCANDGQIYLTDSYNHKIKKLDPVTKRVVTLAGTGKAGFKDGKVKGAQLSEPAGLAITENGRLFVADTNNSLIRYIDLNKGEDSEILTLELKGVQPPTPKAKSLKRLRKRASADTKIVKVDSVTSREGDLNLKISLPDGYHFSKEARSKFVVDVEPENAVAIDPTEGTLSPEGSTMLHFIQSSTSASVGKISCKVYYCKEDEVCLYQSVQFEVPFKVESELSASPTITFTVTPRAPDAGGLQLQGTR

T2: SOQ1-FLAG (35S:SOQ1-FLAG) (Arabidopsis thaliana) (UniProt Q8VZ10)
T2 sequence: T1 sequence

B1: nYFP-tagged HHL1 (full-length HHL1 in pUC-SPYNE) (protein, UniProt Q8LDL0 40-231)
chain: ETAVQQRRMVFVVEAKGKKGMAARQYQRTPPPMPKIEDDGNPRFVIFIRMANVYLWYPLSIIAGGTTAKIMVAAKDNLLGKYIYKDTIARNIAAVIYRDEKEIQKTAIKQHRVLRTATEFRYGYKLVENGNMRAALSTSDVIELPTQDQLKTVFDKVKDYFGDAKESFGKLSSLNPGSDEKTEETSDEKAKA
B2: purified His-HHL1 fusion protein (protein, UniProt Q8LDL0 40-231)
chain: B1 chain
B3: HHL1-NVWA-nYFP (HHL1 lacking the von Willebrand factor type A domain) (protein, UniProt Q8LDL0)
chain: ETAVQQRRMVFVVEAKGKKGMAARQYQRTPPPMPKIEDDGNPRFVIFIRMANVYLWYPLSFRYGYKLVENGNMRAALSTSDVIELPTQDQLKTVFDKVKDYFGDAKESFGKLSSLNPGSDEKTEETSDEKAKA

Experiments:
[1] = biological target: T1, cYFP-tagged SOQ1 (full-length SOQ1 in pUC-SPYCE) (Arabidopsis thaliana); assay: split reporter; BiFC: nYFP and cYFP fusions (pUC-SPYNE, pUC-SPYCE) cotransformed into Arabidopsis mesophyll protoplasts; confocal microscopy
[2] = biological target: T2, SOQ1-FLAG (35S:SOQ1-FLAG) (Arabidopsis thaliana); assay: co-IP; protoplasts of 25-day-old transgenic plants expressing SOQ1-FLAG, transformed with HHL1-nYFP (MYC tag) or HHL1-NVWA-nYFP; anti-FLAG precipitation as for the seedlings
[3] = biological target: T2, SOQ1-FLAG (35S:SOQ1-FLAG) (Arabidopsis thaliana); assay: co-IP; total proteins of 10-day-old transgenic seedlings expressing SOQ1-FLAG and purified His-HHL1; anti-FLAG M2 affinity gel, 3 h at 4 °C, IP buffer 10 mM Hepes pH 7.5, 150 mM NaCl, 1 mM EDTA, 10% glycerol, 0.5% Triton X-100; eluted with 3x Flag peptide; blot with anti-HHL1; only the binder purified

| Binder | binding [1] | binding [2] | binding [3] |
| --- | --- | --- | --- |
| B1 | binds | binds |  |
| B2 |  |  | binds |
| B3 | no binding |  |  |

Reference: PMC10173003
